At least one compound was matched to its structure with a doubt left.
Target: NQO1 protein (Homo sapiens, UniProt P15559)
Assay: NQO1 activity measurement (cytochrome C reduction)
Assay type: biochemical
Conditions: 5 ng NQO1 protein, 200 μM NADH, 77 μM cytochrome C, 37° C., absorbance 550 nm for 10 minutes
Protocol: An enzyme reaction solution included 25 mM Tris/HCl (pH 7.4), 0.14% bovine serum albumin, 200 μM NADH, 77 μM cytochrome C, and 5 ng of NQO1 protein. Enzymatic reaction was initiated by adding NADH and performed at 37° C. In this regard, a reaction rate was measured by observing absorbance, which was increased due to reduction of cytochrome C, at 550 nm for 10 minutes and NQO1 activity was represented as an amount of reduced cytochrome C [nmol cytochrome C reduced/min/μg protein].
Extinction coefficient for cytochrome C:21.1 mmol/L/cm=21.1 μmol/ml/cm

Sequences of proteins named here, by UniProt entry; tags and fusion partners are left off.
UniProt P15559, whole entry, species assumed: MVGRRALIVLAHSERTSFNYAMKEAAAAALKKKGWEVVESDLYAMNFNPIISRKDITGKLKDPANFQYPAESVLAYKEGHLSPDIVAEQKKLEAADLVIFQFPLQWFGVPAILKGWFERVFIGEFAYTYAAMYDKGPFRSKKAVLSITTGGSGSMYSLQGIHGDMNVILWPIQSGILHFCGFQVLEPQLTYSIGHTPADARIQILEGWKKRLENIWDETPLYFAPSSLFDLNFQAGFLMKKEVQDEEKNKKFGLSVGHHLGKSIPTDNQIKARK

`CCc1nc2c([nH]1)C(=O)C(=O)c1ccccc1-2` [Example 95] was tested. Which “NQO1 activity (5 μM, [nmol cytochrome C reduced/min/μg protein])” value did it give?
The value was 228.1 nmol cytochrome C reduced/min/μg protein.

— patent publication US10766882B2, “1,2-naphthoquinone based derivative and method of preparing the same” (YUNGJIN PHARM. CO., LTD., priority 2013, dated 2020)
